Measured values published in patent US20160152566A1, “TRICYCLIC PYRROLE COMPOUNDS, THEIR PREPARATION AND USE IN MEDICAMENTS” (INSTITUTO BIOMAR, S.A., priority 2013, published 2016).
At least one compound was matched to its structure with a doubt left.

What was measured:
[1] = test system: zebrafish intersegmental vessels; assay: Zebrafish embryo intersegmental vessel assay (TGfli1:EGFPy1); type: in vivo; conditions: 25 μM added to water, late tail bud stages
Protocol: Zebrafish embryos were generated by natural pairwise mating and maintained in embryo water at 28.5° C. […] Embryos were manually dechorionated with forceps at 24 h post-fertilization (hpf), they were arrayed in 96-well plate, one embryo per well, and incubated with 100 μl of the indicated concentrations of the tested compounds at 28.5° C. for 24 h. DMSO was used as both carrier of drugs and control. After incubation, fish embryos were anesthetized with tricaine (0.02%), placed on slides and examined under an epifluorescence Nikon microscope equipped with DS-L1 Nikon digital camera. Phenotypic changes were evaluated by two different observers.

[2] = test system: U2OS osteosarcoma; assay: MTT cell growth assay, U2OS; type: cell-based, Human
[3] = test system: BAEC MMP-2; assay: Gelatin zymography, BAE cells; type: cell-based, Bovine; conditions: 24 h, conditioned media and cellular extracts
[4] = test system: HCT-116 colon carcinoma; assay: MTT cell growth assay, HCT-116; type: cell-based; conditions: HCT-116, MTT
[5] = test system: HT1080 fibrosarcoma; assay: MTT cell growth assay, HT1080; type: cell-based, Human
[6] = test system: HT29 colon adenocarcinoma; assay: MTT cell growth assay, HT29; type: cell-based, Human
[7] = test system: A549 lung carcinoma; assay: MTT cell growth assay, A549; type: cell-based
[8] = test system: PSN1 pancreatic adenocarcinoma; assay: MTT cell growth assay, PSN1; type: cell-based
[9] = test system: BAECs; assay: Cell cycle analysis, sub-G1 population (propidium iodide flow cytometry); type: cell-based, Bovine; conditions: 14 h, different doses
[10] = test system: T98G glioblastoma; assay: MTT cell growth assay, T98G; type: cell-based
[11] = test system: MDAMB231 breast carcinoma; assay: MTT cell growth assay, MDAMB231; type: cell-based, Human
[12] = test system: caspase-3/7 in BAECs; assay: Caspase 3/7 activity (Caspase-Glo 3/7); type: cell-based, Bovine; conditions: 14 h, BAE cells
[13] = test system: BAEC; assay: Wounding migration assay; type: cell-based, Bovine; conditions: 7 and 24 hours of migration

**Q.** Which “Number of caudal intersegmental vessels” value [1] does the source give for `C/C=C/C(=O)C1(O)CC2CC(C(=O)O)CC(C)C2C1C(=O)C1=C(/C=C/C)C(=O)C2(Cl)C3(CCCCCC)C(=O)NC(=O)C23C1=O` (stereo not shown) [AD0157] here?
**A.** reduced the number of caudal intersegmental vessels

**Q.** And the “IC50 compared with BAEC” value [2]?
**A.** in the same range of concentrations than that of BAEC

**Q.** And the “MMP-2 secretion by endothelial cells” value [3]?
**A.** inhibited MMP-2 secretion

**Q.** What about the “IC50 compared with BAEC” value [4] of the same molecule?
**A.** in the same range of concentrations than that of BAEC

**Q.** What about the “IC50 compared with BAEC” value [5] of the same molecule?
**A.** in the same range of concentrations than that of BAEC

**Q.** And the “IC50 compared with BAEC” value [6]?
**A.** in the same range of concentrations than that of BAEC

**Q.** What about the “IC50 compared with BAEC” value [7] of the same molecule?
**A.** in the same range of concentrations than that of BAEC

**Q.** And the “IC50 compared with BAEC” value [8]?
**A.** in the same range of concentrations than that of BAEC

**Q.** What about the “Apoptotic sub-G1 cells” value [9] of the same molecule?
**A.** significantly increased

**Q.** What about the “IC50 compared with BAEC” value [10] of the same molecule?
**A.** in the same range of concentrations than that of BAEC

**Q.** And the “IC50 compared with BAEC” value [11]?
**A.** in the same range of concentrations than that of BAEC

**Q.** And the “Effector caspase-3 activation” value [12]?
**A.** significantly activated in a dose-dependent pattern

**Q.** What about the “Migratory capability of endothelial cells” value [13] of the same molecule?
**A.** dose-dependent inhibition
